Measurements: the supplement of paper PMC10849652
This is one part of the list.

Sequences of proteins named here, by UniProt entry; tags and fusion partners are left off. A change or cut given only in a name is not applied to a line headed by its entry.
UniProt P62491: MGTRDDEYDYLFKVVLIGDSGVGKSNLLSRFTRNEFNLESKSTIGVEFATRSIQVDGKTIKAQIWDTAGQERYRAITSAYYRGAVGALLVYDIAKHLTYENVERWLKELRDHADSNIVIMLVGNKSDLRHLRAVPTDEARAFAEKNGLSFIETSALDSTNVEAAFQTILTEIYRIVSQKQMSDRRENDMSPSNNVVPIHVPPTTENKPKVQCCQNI
UniProt Q9UJ41, whole entry, looked up: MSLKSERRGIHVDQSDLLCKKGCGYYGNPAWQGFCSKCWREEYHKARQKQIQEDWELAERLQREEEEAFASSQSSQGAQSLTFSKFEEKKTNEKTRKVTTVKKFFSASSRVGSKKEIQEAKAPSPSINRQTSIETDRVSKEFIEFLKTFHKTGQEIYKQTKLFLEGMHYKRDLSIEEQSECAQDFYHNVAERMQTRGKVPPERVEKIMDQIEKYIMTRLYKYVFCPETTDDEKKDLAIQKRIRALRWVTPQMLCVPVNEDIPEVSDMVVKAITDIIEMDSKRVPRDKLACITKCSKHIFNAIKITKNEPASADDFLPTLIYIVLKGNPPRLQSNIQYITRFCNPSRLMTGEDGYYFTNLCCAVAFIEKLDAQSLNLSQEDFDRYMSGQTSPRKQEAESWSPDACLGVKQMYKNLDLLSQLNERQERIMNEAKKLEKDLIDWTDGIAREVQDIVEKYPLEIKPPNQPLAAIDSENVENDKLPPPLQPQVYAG
UniProt Q53S08: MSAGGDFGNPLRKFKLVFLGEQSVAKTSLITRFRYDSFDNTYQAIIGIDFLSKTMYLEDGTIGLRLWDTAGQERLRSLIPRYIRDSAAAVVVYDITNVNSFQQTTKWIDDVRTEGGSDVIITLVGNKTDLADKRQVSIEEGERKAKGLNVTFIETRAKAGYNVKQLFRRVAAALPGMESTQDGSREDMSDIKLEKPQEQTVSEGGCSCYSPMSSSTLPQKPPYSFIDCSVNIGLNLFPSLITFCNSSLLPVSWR
UniProt P20340: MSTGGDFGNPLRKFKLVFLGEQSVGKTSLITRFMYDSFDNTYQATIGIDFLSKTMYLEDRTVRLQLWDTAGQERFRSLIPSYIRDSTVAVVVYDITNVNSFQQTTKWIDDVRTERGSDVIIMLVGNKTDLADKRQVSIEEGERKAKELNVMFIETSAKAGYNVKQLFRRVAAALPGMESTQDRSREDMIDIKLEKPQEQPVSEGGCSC
UniProt P61006: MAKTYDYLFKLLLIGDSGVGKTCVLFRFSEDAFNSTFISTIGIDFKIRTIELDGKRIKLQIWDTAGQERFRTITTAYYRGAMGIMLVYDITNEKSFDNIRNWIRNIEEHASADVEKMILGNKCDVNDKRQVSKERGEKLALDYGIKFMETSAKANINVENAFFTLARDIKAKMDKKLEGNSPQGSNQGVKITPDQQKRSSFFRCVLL
UniProt P20338: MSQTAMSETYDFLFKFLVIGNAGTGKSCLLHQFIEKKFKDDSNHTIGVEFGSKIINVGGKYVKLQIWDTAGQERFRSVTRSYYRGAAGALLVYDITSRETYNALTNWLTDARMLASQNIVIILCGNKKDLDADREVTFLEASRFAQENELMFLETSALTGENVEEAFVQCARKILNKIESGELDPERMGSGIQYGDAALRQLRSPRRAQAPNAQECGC
UniProt Q96EV2: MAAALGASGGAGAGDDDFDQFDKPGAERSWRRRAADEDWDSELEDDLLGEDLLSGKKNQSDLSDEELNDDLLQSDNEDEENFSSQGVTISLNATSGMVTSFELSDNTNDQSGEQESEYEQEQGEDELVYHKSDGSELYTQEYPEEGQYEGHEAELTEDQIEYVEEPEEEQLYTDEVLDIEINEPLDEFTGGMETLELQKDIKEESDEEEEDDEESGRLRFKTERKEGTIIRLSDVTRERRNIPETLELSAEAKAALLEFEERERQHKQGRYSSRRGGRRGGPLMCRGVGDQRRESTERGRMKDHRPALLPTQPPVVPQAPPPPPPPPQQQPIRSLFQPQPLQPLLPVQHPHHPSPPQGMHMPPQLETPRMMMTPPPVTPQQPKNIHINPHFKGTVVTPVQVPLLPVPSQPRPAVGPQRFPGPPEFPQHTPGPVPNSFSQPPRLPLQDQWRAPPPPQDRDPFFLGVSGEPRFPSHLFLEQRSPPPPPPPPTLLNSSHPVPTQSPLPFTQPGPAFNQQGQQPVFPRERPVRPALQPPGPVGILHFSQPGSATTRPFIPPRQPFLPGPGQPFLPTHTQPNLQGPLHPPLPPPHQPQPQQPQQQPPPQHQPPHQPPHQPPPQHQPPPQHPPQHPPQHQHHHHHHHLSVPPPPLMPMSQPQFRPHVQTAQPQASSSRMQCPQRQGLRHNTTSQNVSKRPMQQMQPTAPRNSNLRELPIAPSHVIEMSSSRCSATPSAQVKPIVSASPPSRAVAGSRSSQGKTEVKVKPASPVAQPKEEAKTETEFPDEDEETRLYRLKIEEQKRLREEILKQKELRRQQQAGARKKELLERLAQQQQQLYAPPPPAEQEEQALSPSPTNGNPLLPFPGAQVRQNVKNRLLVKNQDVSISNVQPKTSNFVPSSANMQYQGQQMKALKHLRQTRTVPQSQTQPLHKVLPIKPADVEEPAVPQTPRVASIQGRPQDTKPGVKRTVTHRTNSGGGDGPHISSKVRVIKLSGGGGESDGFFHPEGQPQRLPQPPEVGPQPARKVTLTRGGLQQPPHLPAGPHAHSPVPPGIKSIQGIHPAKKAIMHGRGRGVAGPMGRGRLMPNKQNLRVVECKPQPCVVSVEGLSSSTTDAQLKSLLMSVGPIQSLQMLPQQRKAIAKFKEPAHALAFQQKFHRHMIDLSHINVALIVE
UniProt Q3YEC7: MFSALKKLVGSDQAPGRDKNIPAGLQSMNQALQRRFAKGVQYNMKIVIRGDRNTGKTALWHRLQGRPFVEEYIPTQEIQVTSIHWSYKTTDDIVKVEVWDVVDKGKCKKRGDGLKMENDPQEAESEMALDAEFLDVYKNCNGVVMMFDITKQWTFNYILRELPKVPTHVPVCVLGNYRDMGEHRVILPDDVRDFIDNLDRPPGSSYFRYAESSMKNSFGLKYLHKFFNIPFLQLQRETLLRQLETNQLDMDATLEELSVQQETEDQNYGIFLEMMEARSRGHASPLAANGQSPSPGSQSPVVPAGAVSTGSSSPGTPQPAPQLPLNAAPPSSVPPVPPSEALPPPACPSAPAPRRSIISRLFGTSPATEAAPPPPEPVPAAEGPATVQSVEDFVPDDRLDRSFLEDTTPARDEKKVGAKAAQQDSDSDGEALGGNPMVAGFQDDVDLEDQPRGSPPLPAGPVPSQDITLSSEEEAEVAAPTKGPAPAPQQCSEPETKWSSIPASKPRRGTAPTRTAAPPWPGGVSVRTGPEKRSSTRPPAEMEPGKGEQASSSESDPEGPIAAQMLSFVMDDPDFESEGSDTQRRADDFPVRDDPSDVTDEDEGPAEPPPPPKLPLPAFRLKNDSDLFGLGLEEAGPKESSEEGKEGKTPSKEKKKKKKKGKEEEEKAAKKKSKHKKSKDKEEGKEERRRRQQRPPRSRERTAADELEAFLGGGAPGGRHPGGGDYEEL
UniProt Q96S21: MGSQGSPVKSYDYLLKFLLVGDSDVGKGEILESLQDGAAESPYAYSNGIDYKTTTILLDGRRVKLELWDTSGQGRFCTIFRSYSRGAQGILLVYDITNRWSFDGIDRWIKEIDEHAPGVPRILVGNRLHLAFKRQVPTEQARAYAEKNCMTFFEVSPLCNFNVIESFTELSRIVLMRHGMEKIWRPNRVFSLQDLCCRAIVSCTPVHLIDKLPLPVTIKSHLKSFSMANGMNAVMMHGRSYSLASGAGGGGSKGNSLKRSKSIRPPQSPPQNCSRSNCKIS
UniProt Q15286: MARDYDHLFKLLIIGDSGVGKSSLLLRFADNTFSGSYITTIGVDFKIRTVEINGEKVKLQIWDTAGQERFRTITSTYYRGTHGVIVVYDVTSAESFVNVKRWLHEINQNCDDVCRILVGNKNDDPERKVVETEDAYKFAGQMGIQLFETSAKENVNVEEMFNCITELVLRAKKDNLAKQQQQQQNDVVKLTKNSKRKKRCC
UniProt O14966: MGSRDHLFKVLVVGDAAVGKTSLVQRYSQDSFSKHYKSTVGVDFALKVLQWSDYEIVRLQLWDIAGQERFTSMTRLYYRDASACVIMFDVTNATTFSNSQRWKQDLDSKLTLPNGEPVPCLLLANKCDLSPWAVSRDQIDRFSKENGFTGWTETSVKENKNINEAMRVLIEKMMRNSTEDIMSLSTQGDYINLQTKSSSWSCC
UniProt Q5T8P6: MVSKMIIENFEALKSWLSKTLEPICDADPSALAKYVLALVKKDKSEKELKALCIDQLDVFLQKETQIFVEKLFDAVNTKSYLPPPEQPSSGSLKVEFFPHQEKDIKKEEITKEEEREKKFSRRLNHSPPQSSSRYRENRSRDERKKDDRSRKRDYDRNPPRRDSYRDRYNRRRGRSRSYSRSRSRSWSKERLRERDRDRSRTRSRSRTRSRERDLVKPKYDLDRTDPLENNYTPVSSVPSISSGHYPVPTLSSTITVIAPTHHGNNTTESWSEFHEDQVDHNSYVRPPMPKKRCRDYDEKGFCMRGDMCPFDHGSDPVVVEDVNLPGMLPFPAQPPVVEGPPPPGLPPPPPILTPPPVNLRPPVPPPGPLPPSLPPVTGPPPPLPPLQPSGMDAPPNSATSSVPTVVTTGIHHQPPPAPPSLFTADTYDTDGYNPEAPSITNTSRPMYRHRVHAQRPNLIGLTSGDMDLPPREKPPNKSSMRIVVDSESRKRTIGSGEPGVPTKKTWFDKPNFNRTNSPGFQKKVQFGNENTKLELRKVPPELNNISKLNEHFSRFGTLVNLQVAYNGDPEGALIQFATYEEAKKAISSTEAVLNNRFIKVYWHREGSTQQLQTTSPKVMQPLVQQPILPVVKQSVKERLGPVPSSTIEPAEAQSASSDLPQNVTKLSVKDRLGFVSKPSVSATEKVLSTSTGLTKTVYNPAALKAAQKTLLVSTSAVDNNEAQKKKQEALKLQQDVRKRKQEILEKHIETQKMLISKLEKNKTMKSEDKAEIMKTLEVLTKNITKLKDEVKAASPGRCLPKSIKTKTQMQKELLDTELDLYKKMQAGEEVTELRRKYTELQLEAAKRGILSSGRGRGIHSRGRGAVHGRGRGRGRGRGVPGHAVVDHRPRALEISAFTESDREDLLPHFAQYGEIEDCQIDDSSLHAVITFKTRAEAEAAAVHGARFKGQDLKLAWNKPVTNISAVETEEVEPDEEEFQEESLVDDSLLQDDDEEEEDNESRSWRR
UniProt P28749: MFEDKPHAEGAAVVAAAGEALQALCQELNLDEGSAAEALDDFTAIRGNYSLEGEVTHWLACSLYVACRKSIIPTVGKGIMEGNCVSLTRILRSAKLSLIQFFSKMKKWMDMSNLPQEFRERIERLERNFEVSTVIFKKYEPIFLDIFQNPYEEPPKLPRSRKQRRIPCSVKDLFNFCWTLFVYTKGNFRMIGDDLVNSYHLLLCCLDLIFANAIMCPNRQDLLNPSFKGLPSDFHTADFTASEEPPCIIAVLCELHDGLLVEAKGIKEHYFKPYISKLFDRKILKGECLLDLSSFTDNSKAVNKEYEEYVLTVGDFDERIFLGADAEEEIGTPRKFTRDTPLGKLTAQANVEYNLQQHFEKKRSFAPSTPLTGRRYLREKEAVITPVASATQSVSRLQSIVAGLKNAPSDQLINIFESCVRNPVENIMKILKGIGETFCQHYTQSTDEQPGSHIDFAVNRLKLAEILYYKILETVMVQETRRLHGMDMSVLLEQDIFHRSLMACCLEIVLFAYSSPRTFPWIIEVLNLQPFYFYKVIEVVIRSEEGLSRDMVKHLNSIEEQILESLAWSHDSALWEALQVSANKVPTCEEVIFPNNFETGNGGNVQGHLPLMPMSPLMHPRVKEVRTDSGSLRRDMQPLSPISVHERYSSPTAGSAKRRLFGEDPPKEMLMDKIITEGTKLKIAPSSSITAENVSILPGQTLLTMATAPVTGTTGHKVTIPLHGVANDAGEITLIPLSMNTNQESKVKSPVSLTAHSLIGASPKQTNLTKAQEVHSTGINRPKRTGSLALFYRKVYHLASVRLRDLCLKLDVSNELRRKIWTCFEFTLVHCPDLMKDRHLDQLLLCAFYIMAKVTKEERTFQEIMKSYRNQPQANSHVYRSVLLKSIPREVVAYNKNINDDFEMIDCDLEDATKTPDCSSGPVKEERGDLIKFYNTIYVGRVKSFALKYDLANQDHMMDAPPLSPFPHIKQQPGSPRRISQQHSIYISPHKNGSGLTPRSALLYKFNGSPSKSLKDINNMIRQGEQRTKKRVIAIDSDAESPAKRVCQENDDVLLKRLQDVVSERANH
UniProt P51153: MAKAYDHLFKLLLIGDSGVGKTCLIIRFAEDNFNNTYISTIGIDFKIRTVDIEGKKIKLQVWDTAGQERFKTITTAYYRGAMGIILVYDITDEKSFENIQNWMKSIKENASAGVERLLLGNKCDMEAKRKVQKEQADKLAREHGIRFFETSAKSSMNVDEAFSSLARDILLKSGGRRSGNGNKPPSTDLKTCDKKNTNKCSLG

Assays:
Test in all cases: log2 fold change, soluble protein after heating vs DMSO (PISA); higher = thermal stabilisation; K562 cells, 10 uM, 30 min; active = over 0.2 and 3.5 SD of the protein, either way, in both replicates (recomputed)
bafetinib = compound: Cc1ccc(NC(=O)c2ccc(CN3CC[C@H](N(C)C)C3)c(C(F)(F)F)c2)cc1Nc1nccc(-c2cncnc2)n1 [bafetinib]
Method in brief: (§1)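 For each measurement, 10 μM compound was applied for 30 min to K562 cells at 2×10^6 cells/mL. Aliquots were heated for 3 min across 48°C-58°C, pooled, and extracted in PBS with 0.5% NP-40 at 4°C; the supernatant after 21,000xg for 90 min was soluble protein. This was quantified by TMTpro 16plex LC-MS/MS with channel sums equalised, and thermal stability was reported relative to control samples from duplicates, on a log2 fold-change scale.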

[1] = compound: Cc1cccc(CC(=O)N2CCc3c2ccc(-c2cn(C)c4ncnc(N)c24)c3F)n1
Method in brief: as §1

nilotinib = compound: Cc1cn(-c2cc(NC(=O)c3ccc(C)c(Nc4nccc(-c5cccnc5)n4)c3)cc(C(F)(F)F)c2)cn1 [nilotinib]
Method in brief: as §1

[2] = compound: Cc1nc(Nc2n[nH]c3c2CN(C(=O)N[C@H](CN(C)C)c2ccccc2)C3(C)C)c2sccc2n1
Method in brief: as §1

dasatinib = compound: Cc1nc(Nc2ncc(C(=O)Nc3c(C)cccc3Cl)s2)cc(N2CCN(CCO)CC2)n1 [dasatinib]
Method in brief: as §1

[3] = compound: Cc1ncc(-c2ccnc(Nc3ccc(S(C)(=O)=O)cc3)n2)n1C(C)C
Method in brief: as §1

[4] = compound: Cn1cc(-c2ccc3c(c2)CCN3C(=O)Cc2cccc(C(F)(F)F)c2)c2c(N)ncnc21
Method in brief: as §1

[5] = compound: Cn1cc(-c2ccc3nnc(C(F)(F)c4ccc5ncccc5c4)n3n2)cn1
Method in brief: as §1

tipifarnib = compound: Cn1cncc1[C@@](N)(c1ccc(Cl)cc1)c1ccc2c(c1)c(-c1cccc(Cl)c1)cc(=O)n2C [tipifarnib]
Method in brief: as §1

mubritinib = compound: FC(F)(F)c1ccc(/C=C/c2nc(COc3ccc(CCCCn4ccnn4)cc3)co2)cc1 [mubritinib]
Method in brief: as §1

Measured: log2 fold change

RAB11A (UniProt P62491)
inactive: bafetinib -0.034 | [1] -0.212 | nilotinib 0.041 | [2] -0.027 | dasatinib 0.148 | [3] 0.073 | [4] 0.034 | [5] 0.049 | tipifarnib 0.031 | mubritinib -0.023

RABGEF1 isoform 3 (UniProt Q9UJ41)
inactive: bafetinib -0.065 | [1] -0.04 | nilotinib 0.004 | [2] 0.011 | dasatinib -0.011 | [3] 0.023 | [4] 0.001 | [5] 0.052 | tipifarnib -0.013 | mubritinib -0.018

RAB6D (UniProt Q53S08)
inactive: bafetinib -0.025 | [1] -0.084 | nilotinib -0.024 | [2] -0.012 | dasatinib 0.04 | [3] -0.076 | [4] 0.066 | [5] -0.024 | tipifarnib 0.01 | mubritinib 0.005

RAB6A isoform 2 (UniProt P20340)
inactive: bafetinib 0.015 | [1] 0.007 | nilotinib 0.003 | [2] 0.004 | dasatinib 0.032 | [3] -0.006 | [4] 0.027 | [5] 0.017 | tipifarnib -0.008 | mubritinib -0.005

RAB8A (UniProt P61006)
inactive: bafetinib -0.043 | [1] -0.058 | nilotinib 0.037 | [2] -0.011 | dasatinib 0.018 | [3] 0.026 | [4] 0.05 | [5] 0.12 | tipifarnib -0.043 | mubritinib 0.014

RBBP5 (UniProt Q15291)
inactive: bafetinib -0.024 | [1] -0.019 | nilotinib -0.022 | [2] -0.002 | dasatinib 0.017 | [3] 0.011 | [4] -0.03 | [5] -0.013 | tipifarnib 0.024 | mubritinib -0.034

RAB11FIP1 (UniProt Q6WKZ4)
inactive: bafetinib -0.042 | [1] 0.12 | nilotinib 0.049 | [2] -0.198 | dasatinib -0.037 | [3] -0.172 | [4] 0.008 | [5] 0 | tipifarnib 0.003 | mubritinib 0.003

RAB2A (UniProt P61019)
inactive: bafetinib 0.007 | [1] -0.015 | nilotinib -0.011 | [2] 0.017 | dasatinib 0.026 | [3] -0.021 | [4] -0.005 | [5] 0.037 | tipifarnib 0.044 | mubritinib 0.02

RAB4A (UniProt P20338)
inactive: bafetinib -0.042 | [1] -0.042 | nilotinib 0.048 | [2] -0.002 | dasatinib 0.031 | [3] -0.001 | [4] 0.043 | [5] 0.031 | tipifarnib -0.105 | mubritinib 0.02

RAB4B isoform 2 (UniProt P61018)
inactive: bafetinib -0.058 | [1] -0.046 | nilotinib -0.004 | [2] 0.028 | dasatinib 0.031 | [3] -0.016 | [4] 0.059 | [5] 0.01 | tipifarnib -0.009 | mubritinib 0.024

RBM33 (UniProt Q96EV2)
inactive: bafetinib -0.055 | [1] 0.012 | nilotinib -0.036 | [2] -0.143 | dasatinib 0.013 | [3] -0.11 | [4] 0.024 | [5] -0.013 | tipifarnib 0.085 | mubritinib -0.004

RAB27A (UniProt P51159)
inactive: bafetinib -0.052 | [1] 0.005 | nilotinib -0.012 | [2] 0.018 | dasatinib 0.002 | [3] 0.013 | [4] 0.012 | [5] 0.023 | tipifarnib 0.031 | mubritinib 0.002

RAF1 isoform 2 (UniProt P04049)
inactive: bafetinib -0.062 | [1] -0.168 | dasatinib -0.191 | [4] 0.181 | [5] -0.144 | tipifarnib -0.185 | mubritinib -0.286

RAB22A (UniProt Q9UL26)
inactive: bafetinib -0.029 | [1] -0.07 | nilotinib -0.026 | [2] 0.02 | dasatinib -0.004 | [3] 0.001 | [4] -0.009 | [5] 0.018 | tipifarnib -0.032 | mubritinib 0.041

RABL6 (UniProt Q3YEC7)
inactive: bafetinib -0.025 | [1] -0.05 | nilotinib -0.018 | [2] 0.015 | dasatinib 0.015 | [3] 0 | [4] 0.036 | [5] 0.053 | tipifarnib -0.015 | mubritinib 0.024

RAB8B (UniProt Q92930)
inactive: bafetinib -0.008 | [1] 0.085 | nilotinib 0.059 | [2] -0.036 | dasatinib 0.015 | [3] -0.043 | [4] 0.031 | [5] -0.016 | tipifarnib -0.088 | mubritinib -0.062

RB1CC1 (UniProt Q8TDY2)
inactive: bafetinib -0.037 | [1] 0.014 | nilotinib 0.009 | [2] 0.078 | dasatinib -0.103 | [3] -0.012 | [4] 0.029 | [5] 0.017 | tipifarnib -0.069 | mubritinib 0.026

RACK1 (UniProt D6RHH4)
inactive: bafetinib -0.496 | [1] -0.627 | nilotinib -0.144 | [2] 0.141 | dasatinib 0.269 | [3] 0.018 | [4] -0.037 | tipifarnib 0.2 | mubritinib -0.103

RAB40C (UniProt Q96S21)
inactive: bafetinib -0.19 | [1] -0.057 | nilotinib -0.108 | [2] 0.004 | dasatinib 0.059 | [3] 0.693 | [5] 0.02 | tipifarnib -0.059 | mubritinib -0.282

RAB35 (UniProt Q15286)
inactive: bafetinib -0.039 | [1] -0.088 | nilotinib 0.126 | [2] 0.005 | dasatinib 0.08 | [3] 0.009 | [4] -0.001 | [5] 0.034 | tipifarnib -0.001 | mubritinib -0.001

RABAC1 (UniProt Q9UI14)
inactive: bafetinib -0.087 | [1] -0.095 | nilotinib 0.018 | [2] -0.033 | dasatinib 0.197 | [3] -0.012 | [5] -0.048 | tipifarnib 0.093 | mubritinib -0.023

3 records drawn at random from those above:
RABAC1 (UniProt Q9UI14)
inactive: bafetinib -0.087 | [1] -0.095 | nilotinib 0.018 | [2] -0.033 | dasatinib 0.197 | [3] -0.012 | [5] -0.048 | tipifarnib 0.093 | mubritinib -0.023

RACK1 (UniProt D6RHH4)
inactive: bafetinib -0.496 | [1] -0.627 | nilotinib -0.144 | [2] 0.141 | dasatinib 0.269 | [3] 0.018 | [4] -0.037 | tipifarnib 0.2 | mubritinib -0.103

RB1CC1 (UniProt Q8TDY2)
inactive: bafetinib -0.037 | [1] 0.014 | nilotinib 0.009 | [2] 0.078 | dasatinib -0.103 | [3] -0.012 | [4] 0.029 | [5] 0.017 | tipifarnib -0.069 | mubritinib 0.026

(cont.)

RANBP3 isoform 2 (UniProt Q9H6Z4)
inactive: bafetinib -0.023 | [1] -0.036 | nilotinib 0.041 | [2] -0.03 | [3] -0.019 | mubritinib 0.008

RAD50, A0A494C0Y7
inactive: bafetinib -0.022 | [1] -0.249 | dasatinib 0.028 | [4] -0.012 | [5] 0.016 | tipifarnib 0.058 | mubritinib 0.167

RAB29 (UniProt O14966)
inactive: bafetinib 0.032 | [1] 0.014 | nilotinib -0.014 | [2] -0.039 | dasatinib 0.086 | [3] 0.105 | [4] -0.009 | [5] 0.004 | tipifarnib 0.047 | mubritinib 0

RBBP6 (UniProt Q7Z6E9)
inactive: bafetinib -0.018 | [1] -0.004 | nilotinib 0 | [2] -0.031 | [3] -0.003 | [4] 0.003 | [5] -0.01 | tipifarnib -0.058 | mubritinib -0.171

RAPGEF6 isoform 4 (UniProt Q8TEU7)
inactive: bafetinib -0.054 | [1] -0.225 | nilotinib -0.065 | [2] -0.254 | [3] -0.05 | [4] 0 | [5] -0.02 | mubritinib 0

RASSF3 (UniProt Q86WH2)
inactive: bafetinib 0.045 | [1] -0.049 | nilotinib 0.006 | [2] 0.107 | [3] -0.081 | [4] 0.008 | [5] -0.067 | tipifarnib 0.075 | mubritinib 0

RAB3D (UniProt O95716)
inactive: bafetinib -0.142 | [1] -0.052 | nilotinib 0.01 | [2] 0.066 | dasatinib 0.221 | [3] -0.116 | [4] 0.075 | [5] -0.201 | tipifarnib 0.065 | mubritinib 0.285

RBM26 isoform 2 (UniProt Q5T8P6)
inactive: bafetinib -0.003 | [1] 0.058 | nilotinib -0.088 | [2] -0.432 | dasatinib -0.176 | [3] 0.021 | [4] 0.12 | [5] 0.168 | tipifarnib -0.033 | mubritinib 0.045

RAB3IL1 (UniProt E9PK89)
inactive: bafetinib -0.053 | [1] 0.01 | nilotinib -0.007 | [2] -0.189 | [3] -0.101 | [4] 0.258 | [5] 0.056 | tipifarnib -0.035

RAB5C isoform 2 (UniProt P51148)
inactive: bafetinib -0.005 | [1] -0.021 | nilotinib 0.019 | [2] -0.019 | dasatinib 0.014 | [3] -0.003 | [4] 0.043 | [5] -0.027 | tipifarnib 0.006 | mubritinib 0.031

RBL1 (UniProt P28749)
inactive: bafetinib -0.096 | [1] -0.393 | nilotinib 0.121 | [2] -0.009 | [3] 0.016

RAB13 (UniProt P51153)
inactive: bafetinib 0.019 | [1] 0.094 | nilotinib 0.022 | [2] 0.011 | dasatinib 0.019 | [3] 0.018 | [4] 0.015 | [5] -0.013 | tipifarnib -0.056 | mubritinib 0.016
